Source: PubChem BioAssay AID1259254 (NCATS, 2017)
Purpose: 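Genome-wide screen for genes that prevent DNA re-replication in cancer cells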 (primary screen). Cell system: human HCT116 colorectal cancer cells. Reagent: single siRNA against human genes. Timing: 3 days. Read-out: 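Nuclei stained with Hoechst and imaged; cell-cycle phase assigned by DNA content; G2 share scaled per plate, non-targeting siRNA 0%, GMNN siRNA 100%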. Scale: G2 robust z-score and G2 cells, % of GMNN control: higher = more G2 cells, more excess DNA replication; raw share of cells in G2: higher = larger share of cells with G2 DNA content. Call rule: 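An siRNA counts as active if its G2 robust z-score lies at least 5 MADs above the screen median; here such calls match roughly 38% of GMNN control or more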.
Shown is an unselected part of about 59,000 reagents tested. Over the whole deposit, about 1,550 (2.6%) were called active. 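G2 share is only a proxy for re-replication; each gene was hit by three separate siRNAs, and active genes were retested.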 Raw values vary from plate to plate and are shown uncorrected. Reagents against one gene are numbered here. Not stated in the record: the amount of reagent.

| Gene | siRNA no. | G2 robust z-score | G2 cells, % of GMNN control | raw share of cells in G2 (%) | outcome |
| --- | --- | --- | --- | --- | --- |
| HSPA14 | 1 | -0.687 | -1.87 | 3.14 | inactive |
| HSPA14 | 2 | 1.15 | 11.1 | 8.73 | inactive |
| HSPA14 | 3 | -0.913 | -3.46 | 2.16 | inactive |
| SPATA46 | 1 | 0.784 | 8.48 | 6.73 | inactive |
| SPATA46 | 2 | -0.761 | -2.39 | 2.12 | inactive |
| SPATA46 | 3 | -0.404 | 0.124 | 3.3 | inactive |
| WIPF2 | 1 | -0.945 | -3.68 | 1.78 | inactive |
| WIPF2 | 2 | -0.901 | -3.37 | 2.7 | inactive |
| WIPF2 | 3 | -0.751 | -2.31 | 2.2 | inactive |
| STEEP1P1 | 1 | -0.368 | 0.381 | 3.69 | inactive |
| STEEP1P1 | 2 | -1.01 | -4.11 | 1.42 | inactive |
| STEEP1P1 | 3 | -0.618 | -1.38 | 3.08 | inactive |
| PLAAT2 | 1 | -0.853 | -3.04 | 2.19 | inactive |
| PLAAT2 | 2 | 2.12 | 17.9 | 10 | inactive |
| PLAAT2 | 3 | -0.0698 | 2.48 | 5.31 | inactive |
| STAU2 | 1 | 2.91 | 23.4 | 12.8 | inactive |
| STAU2 | 2 | 0.747 | 8.22 | 7.66 | inactive |
| STAU2 | 3 | 5.43 | 41.2 | 16.2 | active |
| SLC10A2 | 1 | -0.974 | -3.88 | 4.37 | inactive |
| SLC10A2 | 2 | 1.41 | 12.9 | 8.95 | inactive |
| SLC10A2 | 3 | 1.15 | 11 | 7.61 | inactive |
| PRRG3 | 1 | -0.697 | -1.93 | 2.19 | inactive |
| PRRG3 | 2 | 0.501 | 6.49 | 7.41 | inactive |
| PRRG3 | 3 | -0.518 | -0.68 | 4.3 | inactive |
| GABBR2 | 1 | 2.11 | 17.8 | 12.2 | inactive |
| GABBR2 | 2 | -0.715 | -2.07 | 3.79 | inactive |
| GABBR2 | 3 | -0.55 | -0.899 | 2.99 | inactive |
| SLC35A5 | 1 | -0.342 | 0.559 | 4.74 | inactive |
| SLC35A5 | 2 | -0.755 | -2.34 | 3.17 | inactive |
| SLC35A5 | 3 | -1.05 | -4.4 | 1.73 | inactive |
| HEATR4 | 1 | -0.168 | 1.78 | 4.46 | inactive |
| HEATR4 | 2 | -0.928 | -3.56 | 2.1 | inactive |
| HEATR4 | 3 | 1.96 | 16.7 | 11.7 | inactive |
| TOX2 | 1 | -0.764 | -2.41 | 3.06 | inactive |
| TOX2 | 2 | -0.493 | -0.499 | 2.84 | inactive |
| TOX2 | 3 | -0.34 | 0.577 | 3.11 | inactive |
| STOML2 | 1 | -0.594 | -1.21 | 3.33 | inactive |
| STOML2 | 2 | -0.109 | 2.2 | 5.06 | inactive |
| STOML2 | 3 | 0.222 | 4.53 | 8.01 | inactive |
| QRICH2 | 1 | 0.656 | 7.58 | 6.63 | inactive |
| QRICH2 | 2 | -0.485 | -0.447 | 3.32 | inactive |
| QRICH2 | 3 | -1.11 | -4.82 | 0.942 | inactive |
| WFDC21P | 1 | 4.71 | 36.1 | 17.4 | inactive |
| WFDC21P | 2 | 0.463 | 6.22 | 5.53 | inactive |
| WFDC21P | 3 | -0.319 | 0.724 | 3.27 | inactive |
| KIAA2013 | 1 | 1.37 | 12.6 | 9.43 | inactive |
| KIAA2013 | 2 | 0.114 | 3.77 | 4.18 | inactive |
| KIAA2013 | 3 | 1.73 | 15.1 | 7.72 | inactive |
| LINC02911 | 1 | -0.907 | -3.42 | 3.17 | inactive |
| LINC02911 | 2 | 0.184 | 4.26 | 5.23 | inactive |
| LINC02911 | 3 | -0.0667 | 2.5 | 4.49 | inactive |
| DERL3 | 1 | 0.772 | 8.4 | 9.57 | inactive |
| DERL3 | 2 | 6.23 | 46.8 | 25.1 | active |
| DERL3 | 3 | 0.358 | 5.49 | 6.55 | inactive |
| TBCD | 1 | 3.69 | 28.9 | 17.9 | inactive |
| TBCD | 2 | 2.38 | 19.7 | 11.7 | inactive |
| TBCD | 3 | -0.793 | -2.61 | 2.42 | inactive |
| CRYGA | 1 | -0.72 | -2.1 | 4.32 | inactive |
| CRYGA | 2 | 5.39 | 40.9 | 19.1 | active |
| CRYGA | 3 | 3 | 24.1 | 13 | inactive |
| TMEM176B | 1 | 1.02 | 10.1 | 6.45 | inactive |
| TMEM176B | 2 | 0.663 | 7.63 | 6.77 | inactive |
| TMEM176B | 3 | 0.632 | 7.41 | 7.35 | inactive |
| LGMN | 1 | -0.0914 | 2.32 | 6.37 | inactive |
| LGMN | 2 | 5.26 | 40 | 19.1 | active |
| LGMN | 3 | 0.79 | 8.52 | 7.09 | inactive |
| MMP14 | 1 | 3.46 | 27.3 | 15.1 | inactive |
| MMP14 | 2 | 1.07 | 10.5 | 8.62 | inactive |
| MMP14 | 3 | 1.02 | 10.1 | 7.68 | inactive |

Hits, among the entries above:
| Gene | siRNA no. | G2 robust z-score | G2 cells, % of GMNN control | raw share of cells in G2 (%) | outcome |
| --- | --- | --- | --- | --- | --- |
| STAU2 | 3 | 5.43 | 41.2 | 16.2 | active |
| DERL3 | 2 | 6.23 | 46.8 | 25.1 | active |
| CRYGA | 2 | 5.39 | 40.9 | 19.1 | active |
| LGMN | 2 | 5.26 | 40 | 19.1 | active |
